# In all, about 410,000 compounds went through this assay and about 18,000 (4.4%) were called active. The shares of active, inactive and inconclusive entries below differ from those in the screen. No stated cut-off is given here; in the data, active means activity change below about -60%; inconclusive means no clear call, values can overlap the other calls; inactive means above about -39%.
# Test: qHTS Assay for inhibitors of the human cytomegalovirus (HCMV)
# Details: HFF cells, HCMV-luciferase reporter, 72 h; at 57.5 µM; stronger effect = lower value
# Method in brief: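 Inhibition of viral replication was scored as loss of reporter luminescence in HFFs infected with HCMV-luciferase (MOI 1 PFU/cell) for 72 h; compounds tested at 2 doses, normalized to buffer and Salinomycin controls.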
# On the % scale 0 is the no-effect control and ±100 the full control effect.
row,Structure (SMILES),"activity change, negative = inhibition"
1,Cc1ccc(C(=O)Nc2ccc(S(=O)(=O)Nc3ncccn3)cc2)cc1[N+](=O)[O-],inactive: 18.4%
2,O=C(CSc1cn(CC(=O)N2CCCCC2)c2ccccc12)NCc1ccc(F)cc1,inconclusive: -55.6%
3,O=C(CCC(=O)OCC(=O)c1ccc([N+](=O)[O-])cc1)NC1CCCCC1,inactive: -37.9%
4,CCOc1cc(-c2c(C#N)c(N)nc3c2CCCC3C)ccc1O (stereo not drawn),inactive: -10.1%
6,O=C1CCC(=O)N1c1ccccc1-c1ccccc1,inactive: 34.5%
7,O=C(Cn1cnc2c(oc3ccccc32)c1=O)c1ccccc1,inactive: 69.5%
8,CCN(CC)S(=O)(=O)c1ccc(N2CCN(CCOc3ccc(OC)cc3)CC2)nc1,active: -76.8%
9,CC(C)NC(=O)C(C1CCCC1)N1C(=O)C(=O)c2ccccc21 (stereo not drawn),inconclusive: -46%
10,OC(c1ccccc1)(c1nc(/C=C/c2ccccc2)cs1)C(F)(F)F (stereo not drawn),active: -60.5%
11,O=C(c1ccccc1)N1CCN(c2ccc(Cl)cc2)CC1,inconclusive: -43.9%
12,O=C(O)Cc1ccc(NS(=O)(=O)c2ccccc2Cl)cc1,inconclusive: -50.8%
13,Cc1c(O)ccc2c(-c3ccccc3)cc(=O)oc12,active: -70.8%
14,Cc1ccc(O)c(NC(=O)C2CCCN2C(=O)OCc2ccccc2)c1 (stereo not drawn),inconclusive: 0%
15,O=C(COc1ccccc1)NCc1ccccc1,inconclusive: -49.4%
16,Cc1ccc(S(=O)(=O)N2CC(CO)=CCC2c2ccccc2)cc1 (stereo not drawn),inconclusive: -53.1%
17,COc1ccccc1C1=NNC(=NCc2ccccc2)SC1,active: -60.2%
18,O=C(c1csc2c1CCCC2)n1cccn1,inconclusive: -59.7%
19,N#CC1=C(N)N2C(=C(C#N)C1c1cccc(Br)c1)Nc1ccccc12 (stereo not drawn),active: -97.4%
20,O=c1[nH]c2ccc(NC(=S)Nc3ccc(F)cc3)cc2[nH]1,inconclusive: -42.7%
21,CCc1nn(CCCC(=O)NCc2ccc(C)cc2)c(=O)c2cc3occc3n12,inconclusive: -42.4%
22,CN(C)/C=C1/Oc2c(ccc3ccccc23)C1=O,inconclusive: -54.1%

row,Structure (SMILES),"activity change, negative = inhibition"
1,O=C(Nc1cccnc1)c1c(F)cccc1F,active: -104%
2,COC(=O)NNC(=O)COc1cc(C)ccc1C,inconclusive: -42.8%
3,CCc1ccc(-c2nc(CS(=O)CC(=O)NC3CC3)c(C)o2)cc1 (stereo not drawn),inactive: 22.6%
4,O=C1C(n2ccc3ccccc32)c2cc(OC(F)(F)F)ccc2N1Cc1ccc(Cl)nc1 (stereo not drawn),inconclusive: -43.6%
5,CCCCNC(=S)NCC(c1ccccc1)c1c[nH]c2ccccc12 (stereo not drawn),inconclusive: -40.6%
6,CC(=O)Nc1cccc(Nc2nc3ccccc3n3c(C)nnc23)c1,inactive: -25.2%
7,CCOC(=O)c1c(NC(=O)C(NCCN(C)C)c2ccccc2)sc2c1CCCC2 (stereo not drawn),inactive: -26.1%
8,COc1ccccc1NC(=O)C(C)Sc1nc(-c2ccccc2)cn1N (stereo not drawn),inconclusive: -53.8%
9,Cc1ccc(S(=O)(=O)Nc2ccc3nc(C)sc3c2)c(C)c1,inactive: -33%
10,CC(C)(C)c1ccc(Cc2n[nH]c(=S)[nH]c2=O)cc1,inconclusive: -57.3%
11,COc1ccc(-c2nc(NC(=O)CSc3nnc(C)s3)ns2)cc1,inconclusive: -58.9%
12,CCN1/C(=C/c2sc(-c3ccccc3C)c[n+]2C)Sc2ccccc21,active: -96.7%
13,CC(=O)c1cccc(-c2ccnc3c2CC(C(=O)NCc2cccs2)O3)c1 (stereo not drawn),inconclusive: -51.5%
14,COc1ccccc1-c1ccc2c(c1)C(C)(Cc1ccc(Cl)cc1)C(=O)N2 (stereo not drawn),inactive: 5.01%
15,CCOc1ccccc1N(C(=O)CNC(=O)c1ccco1)C(C(=O)NC1CCCC1)c1ccncc1 (stereo not drawn),active: -61.1%
16,O=C(Nc1ccc(/C=C/c2nc3ccccc3o2)cc1)c1cccc(C(F)(F)F)c1,inactive: 9.24%
17,Clc1ccc2c(N/N=C/c3ccccc3Br)ccnc2c1,active: -64.1%
18,Cn1ccnc1C(=O)c1cc(SCC(=O)N2CCOCC2)nc2ccccc12,inconclusive: -48.7%
19,CN(c1ccccc1)S(=O)(=O)c1cccc(C(=O)NNC(=O)c2ccccc2)c1,inconclusive: -58.9%
20,CCOC(=O)c1sc(NC(=O)Nc2ccccc2Cl)cc1C,active: -73.8%
21,CCCN(C(=O)CCNC(=O)c1ccc(Cl)cc1)c1c(N)n(Cc2ccccc2)c(=O)[nH]c1=O,inconclusive: -41.7%
22,COc1ccc(N2CCN(S(=O)(=O)CCNC(=O)c3cc(=O)c4ccccc4o3)CC2)cc1,inconclusive: -45.9%

row,Structure (SMILES),"activity change, negative = inhibition"
1,CCc1ccccc1Oc1nc(NCCOC)nc2cc(-c3ccccc3)sc12,inconclusive: -40.6%
2,COc1ccccc1-c1nn2c(=O)cc(CN3CCN(C(=O)COc4ccccc4Cl)CC3)nc2s1,inactive: 5.35%
3,O=C1CCC(C(=O)N2CCC(CO)(Cc3ccc(Cl)cc3)CC2)=NN1,inconclusive: -43.4%
4,O=C(Oc1ccc(F)cc1)c1nc(SCc2ccc(F)cc2)ncc1Cl,inconclusive: -52%
5,O=C(NCc1cccnc1)c1cc(Sc2cccc(Cl)c2)nc2ccccc12,inconclusive: -54%
6,CC1=C(C(=O)NCc2ccccc2C)C2(CCCCCC2)OC1=O,inconclusive: 0%
7,Cc1ccccc1-c1nc(CN2C(=O)CN=C(c3ccccc3)c3ccccc32)c(C)o1,inconclusive: -49.2%
8,COc1ccc2c3c1OC1C(=O)CC[C@@]4(O)[C@@H](C2)N(C)CC[C@]314 (stereo partly drawn),active: -80.1%
9,CC(CCc1ccccn1)C(=O)C(C)CCc1ccccn1 (stereo not drawn),inconclusive: -50.6%
10,O=C1CC(NS(=O)(=O)c2ccc(F)cc2)CN1c1ccc2c(c1)OCCO2 (stereo not drawn),inactive: 2.47%
11,O=C(CNC(=O)c1cccc(N2C(=O)c3ccccc3C2=O)c1)Nc1ccc(F)c(F)c1,inconclusive: 0%
12,CCOc1ccccc1N1C(=O)CN(Cc2ccc(OC)c(OC)c2)C1=S,inactive: -13.8%
13,C[n+]1c(-c2ccccc2)cc2c(=Cc3ccc([N+](=O)[O-])cc3)c3ccccc3n21,active: -101%
14,O=S(=O)(c1ccc(Cl)cc1)N(CCCN1CCOCC1)Cc1cccs1,inconclusive: -41.1%
15,C=CCn1c(SCC(=O)NNC(=O)Nc2ccc(C)cc2)nnc1-c1ccccc1,inconclusive: -57.8%
16,Cc1noc(/C=C/c2ccco2)c1S(=O)(=O)N1CCC(C(=O)Nc2ccc(Cl)cn2)CC1,active: -79.9%
17,COc1ccc(NC(=O)c2ccccc2Oc2ccccc2)cc1,inconclusive: -40.5%
18,O=C1C2=C(C(c3ccccc3)=NCCN2)C(c2cccc([N+](=O)[O-])c2)N1c1ccccc1 (stereo not drawn),inconclusive: -41.2%
19,CCOC(=O)C1CCCN(S(=O)(=O)c2cc(Br)cc3c2N(C(C)=O)CC3)C1 (stereo not drawn),inconclusive: -56.8%
20,CCc1c(-c2ccccc2)ncn1Cc1cccc(-c2ccccc2)c1,active: -67.9%
21,O=C(Nc1ccc(C(=O)N2CCN(c3ccccc3F)CC2)cc1)C1=CSCCO1,active: -60.5%
22,COc1ccc(C(=O)NCC(=O)OCc2ccccc2F)cc1,inactive: -1.64%

# Of the compounds above, 3 have bromine.
row,Structure (SMILES),"activity change, negative = inhibition"
19,N#CC1=C(N)N2C(=C(C#N)C1c1cccc(Br)c1)Nc1ccccc12 (stereo not drawn),active: -97.4%
17,Clc1ccc2c(N/N=C/c3ccccc3Br)ccnc2c1,active: -64.1%
19,CCOC(=O)C1CCCN(S(=O)(=O)c2cc(Br)cc3c2N(C(C)=O)CC3)C1 (stereo not drawn),inconclusive: -56.8%

# Additional results

row,Structure (SMILES),"activity change, negative = inhibition"
1,CCN1CCSc2ccc(C(=O)NCc3cc(Br)ccc3OC)cc21,inconclusive: -57.7%
2,COc1ccc(C(=O)OCC(=O)Nc2cc(C)on2)cc1S(=O)(=O)N1CCOCC1,inconclusive: -47.9%
3,Cc1cccc(N2CCN(C(=O)C3CCN(S(=O)(=O)c4ccc5c(c4)oc(=O)n5C)CC3)CC2)c1C,inconclusive: -43.6%
4,CNc1nc2cc([N+](=O)[O-])c([N+](=O)[O-])cc2nc1NC,active: -85.8%
5,CCC(=O)NC(=S)Nc1cccc(Cl)c1N1CCCCC1,inconclusive: -49.2%
6,Cc1ccc(S(=O)(=O)N2CCC(=O)N(CCOCc3ccc(C(F)(F)F)cc3)CC2)cc1,inconclusive: -50.3%
7,Cc1cc(C)c2oc(C(=O)Nc3ccc(S(=O)(=O)N(C)c4ccccc4)cc3)cc(=O)c2c1,inactive: -2.92%
8,CN(C)c1ccc(C(C(=O)NCc2ccccc2)N(Cc2ccco2)C(=O)c2snc(C(N)=O)c2N)cc1 (stereo not drawn),active: -76.4%
9,CCN(CC)c1ccc(CNc2nc3ccccc3n2CC)cc1,inconclusive: -41.5%
10,COC(CNC(=O)c1ccc2nc3ccccc3c(=O)n2c1)OC,inconclusive: -48.2%
11,COc1ccc(S(=O)(=O)NCc2ccc3c(c2)OCO3)cc1OC,inactive: 32%
12,CCCCOc1ccc(CNC(=O)c2ccc(NC(=O)N3CCSc4ncccc43)cc2)cc1,inconclusive: 0%
13,CSc1ccc(CN2CCC2(C)C(=O)NCc2ccccc2Br)cc1 (stereo not drawn),inconclusive: -52.7%
14,CC1CCC2C(=O)N(c3ccc(C(=O)NCc4ccccc4)cc3)C(=O)C2C1 (stereo not drawn),inactive: -16.9%
15,COc1ccc(/C(C)=N/NC(=S)Nc2cc(C)ccc2C)cc1,inconclusive: -51%
16,CC(=O)c1ccc(NC(=O)COC(=O)c2c3c(nc4ccccc24)/C(=C\c2cccs2)CCC3)cc1,inconclusive: -45.4%
17,Cc1cccc(Cc2nnc(CCC(=O)N3CCCCC3c3nccs3)o2)c1 (stereo not drawn),inconclusive: -44.5%
18,O=c1[nH]cc(F)c(=O)[nH]1,inconclusive: -52.1%
19,CCCn1c(SCC(=O)c2c(C)[nH]c(C)c2C(=O)OCC)nc2ccccc21,inconclusive: -47.5%
20,CC(C)n1c(N2CCN(S(=O)(=O)c3cccc([N+](=O)[O-])c3)CC2)nc2ccccc21,inconclusive: -46.4%
21,CC(C)C(NS(=O)(=O)c1cccc2nsnc12)C(=O)NC1CCCCC1 (stereo not drawn),inconclusive: -41.4%
22,CC1CCCCN1C(=S)Nc1ccc(S(=O)(=O)N2CCCCC2)cc1 (stereo not drawn),inactive: -30.8%
